# In ChEMBL document CHEMBL4303122, “Identification of potential treatments for COVID-19 through artificial intelligence-enabled phenomic analysis of human cells infected with SARS-CoV-2” (2020):
# In all, about 1,600 compounds were measured (“Hit score”: median about 0.13, highest 2% from about 0.46 on). Some of the results follow.
# System: SARS-CoV-2
# Assay: Antiviral activity against SARS-CoV-2 (USA-WA1/2020 strain) measured by imaging in HRCE cells at MOI 0.4 after 96 hrs (reported as hit score from 0-1 for on-disease vs off-disease activity: scores >0.6 considered hits)
# Assay type: functional, Homo sapiens
row,SMILES,Hit score
1,CC[C@@H](CO)NC(=O)[C@@H]1C=C2c3cccc4[nH]cc(c34)C[C@H]2N(C)C1 [METHYLERGONOVINE],0.219
2,CC(=O)Oc1cccc2c1C(=O)c1c(OC(C)=O)cc(C(=O)O)cc1C2=O [DIACEREIN],0.1572
3,CCCCC(C)(O)C/C=C/[C@H]1[C@H](O)CC(=O)[C@@H]1CCCCCCC(=O)OC (some centres not stated) [MISOPROSTOL],-0.07952
4,CC1(C)[C@@H](O)CC[C@]2(C)[C@H]3C(=O)C=C4[C@@H]5C[C@@](C)(C(=O)O)CC[C@]5(C)CC[C@@]4(C)[C@]3(C)CC[C@@H]12 [ENOXOLONE],0.1505
5,N[C@H]1C(O)O[C@H](CO)[C@@H](O)[C@@H]1O (some centres not stated) [GLUCOSAMINE],0.1709
6,C/C(=C\c1csc(C)n1)[C@@H]1C[C@@H]2O[C@]2(C)CCC[C@H](C)[C@H](O)[C@@H](C)C(=O)C(C)(C)[C@@H](O)CC(=O)N1 [IXABEPILONE],0.1281
7,CN1CCCC(n2nc(Cc3ccc(Cl)cc3)c3ccccc3c2=O)CC1 (configuration not stated) [AZELASTINE],0.009467
8,CN(C)CCC[C@@]1(c2ccc(F)cc2)OCc2cc(C#N)ccc21 [ESCITALOPRAM],-0.002404
9,O=C(O[C@H]1CN2CCC1CC2)N1CCc2ccccc2[C@@H]1c1ccccc1 [SOLIFENACIN],0.03148
10,NC(=O)N/N=C/c1ccc([N+](=O)[O-])o1 [NITROFURAZONE],0.1562
11,CC(C)C[C@H](NC(=O)[C@H](CCc1ccccc1)NC(=O)CN1CCOCC1)C(=O)N[C@@H](Cc1ccccc1)C(=O)N[C@@H](CC(C)C)C(=O)[C@@]1(C)CO1 [CARFILZOMIB],-0.2765
12,CN1CCCCC1CCN1c2ccccc2Sc2ccc([S+](C)[O-])cc21 (configuration not stated) [MESORIDAZINE],0.07548
13,Cc1c(S(=O)(=O)[O-])oc2c1C(=O)C(=O)c1c-2ccc2c1CCCC2(C)C.[Na+] [SODIUM TANSHINONE IIA SULFONATE],0.113
14,CO[C@@H]1[C@@H](OC(N)=O)[C@@H](O)[C@H](Oc2ccc3c(O)c(NC(=O)c4ccc(O)c(CC=C(C)C)c4)c(=O)oc3c2C)OC1(C)C [NOVOBIOCIN],0.09215
15,N#Cc1cc2c(cc1[N+](=O)[O-])=NC(=O)C(=O)N=2,0.1284
16,C#C[C@]1(O)CC[C@H]2[C@@H]3CCc4cc(O)ccc4[C@H]3CC[C@@]21C [ETHINYL ESTRADIOL],0.06314
17,NC(=O)c1cnc2[nH]ccc2c1N[C@@H]1[C@@H]2CC3C[C@H]1C[C@@](O)(C3)C2 [PEFICITINIB],0.009204
